Results taken from PubChem BioAssay AID1347423 (Functional Genomics Laboratory (NCATS/FGL), 2020).
The whole screen tested about 52,000 sequences, of which about 210 (0.4%) were called active.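 Rule for the calls: active = gene whose silencing raises cell survival under the drug, median off-target-corrected z-score across its silencing RNAs 2 or more; inactive = the rest.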 This is one part of the list.

Assay: Resistance to Poly (ADP-Ribose) Polymerase inhibitor: Gene Identification via Genome-wide siRNA Screen
Settings: mouse BRCA2 R2336H ES cells, olaparib, CellTiter-Glo viability; stronger effect = higher value
From the text: The role of Poly (ADP-Ribose) Polymerase (PARP) proteins in DNA repair has been elegantly utilized for the synthetic lethality-based treatment of BRCA-deficient tumors by PARP inhibitors. PARP inhibitors are now being used for treatment of BRCA-deficient breast and ovarian cancers. […] While several mechanisms of drug resistance have been identified, majority of these tumors develop drug resistance due to unknown causes. To identified novel regulators of chemo-resistance in BRCA2-mutated cells, we performed a genome wide siRNA library screen. We have found ES cells expressing a hypomorphic allele of BRCA2 to be hypersensitive to PAPP inhibitors (such as olaparib). We used ES cells expressing a mutant allele of BRCA2 that has a single amino acid substitution at position 2336 (arginine to histidine, R2336H). The screen was conducted using an Ambion (Thermo) Silencer Mouse Genome siRNA collection. The library targets 17,575 mouse genes with 3 siRNAs per gene. TET2 (E130014J05Rik) was identified as a top candidate.
Transfections were performed in 384 well plates (Corning 3707). Plates were coated with 0.1% gelatin in H2O overnight at ambient temperature. Gelatin solution was aspirated (BioTek EL406) and siRNAs were printed using a Bravo VPrep liquid handler integrated within a BioCel automation platform (Agilent). Cell viability was measured using CellTiter Glo (Promega). For transfections, […] of serum free media containing Lipofectamine RNAiMax […] was added to wells containing siRNA (0.8pmol). Lipid and siRNA were allowed to complex for 45 min at ambient temperature before addition of 1000 cells in DMEM, 30% FBS to yield final transfection mixtures containing 20 nM siRNA in DMEM, 15% FBS. PARPi (olaparib, AZD2281) was added 48 h post-transfection (500 nM) and viability (CellTiter Glo, Promega) was assayed 72 h later on a PerkinElmer Envision 2104 Multilabel plate reader. Ambion Silencer Select Negative Control #2 was incorporated on all screening plates (16 wells) and the median negative control value on each plate was used for normalization. An siRNA targeting Trp53 was used as a positive control. This control yielded a median protective effect of ~1.9 fold versus negative control throughout the screen. The median absolute deviation (MAD) based z-score was calculated for each siRNA. Genes were then ranked by taking the median value for all siRNAs tested against a given gene. Scores were also adjusted for seed-based off-target effects to help deprioritize likely false positives.

Q: For GGACUUGUGAUUCAAGCAUTT against Rad23b, which z-score is on record?
A: inactive: -0.725

Q: Which z-score does the source give for CGGUGUUGGUAAAUGUCACTT against Olfr1427 here?
A: inactive: 1.93

Q: For GCCAUCAAAAUCUCACAAGTT against Ate1, which z-score is on record?
A: inactive: 2.17

Q: Which z-score does the source give for “GGAAGGACAGUCUGCUCAUTT against 2310066E14Rik” here?
A: inactive: 0.259

Q: For GGUCUUGCUAUUUGUGAUATT against Olfr1294, which z-score is on record?
A: inactive: -0.143

Q: With AACUGUACAUUGAAGCAGATT against Cstf3 as the sequence, how does the z-score read?
A: inactive: 0.0178

Q: Which z-score does the source give for GCUGUUUUGUCUCCAGCCCTT against Zbtb20 here?
A: inactive: -0.38

Q: With GGGCAGUCAUAAAGAUACATT against Olfr131 as the sequence, how does the z-score read?
A: inactive: -0.703

Q: For GGAUUUGAGAGCCAAUUGUTT against Abo, which z-score is on record?
A: inactive: 0.0406

Q: With GGUUAUUUUUGAUGAGACCTT against Ascc2 as the sequence, how does the z-score read?
A: inactive: 1.23

Q: For GGGCAUUUAGAAAUCUUGATT against Prkar2a, which z-score is on record?
A: inactive: 0.438

Q: With “GCCGUAUGGAUGUAAAUUATT against D130040H23Rik” as the sequence, how does the z-score read?
A: inactive: 0.279

Q: With “GGCUAUCCUCUUUUACCAUTT against 0610009O20Rik” as the sequence, how does the z-score read?
A: inactive: 0.315

Q: For GUGCAGAUAUCUUUAGCAATT against Olfr159, which z-score is on record?
A: inactive: 0.0685

Q: Which z-score does the source give for GGAUGUGCACGAAGGACAGTT against Cdh2 here?
A: inactive: 0.305

Q: With GGUGUUCAUUACUUUUGAGTT against Irak1bp1 as the sequence, how does the z-score read?
A: inactive: -0.28

Q: With GCAACAAUCUGAGGACGACTT against Brunol4 as the sequence, how does the z-score read?
A: inactive: -0.545

Q: For CCGUACAUAUGGUGAUCCATT against Rtn1, which z-score is on record?
A: inactive: 0.133

Q: Which z-score does the source give for GGACACUUUCUCAUAUCAUTT against Abca9 here?
A: inactive: 1.17

Q: With GCGAUUCUGUAAAGAGCGCTT against Nme1 as the sequence, how does the z-score read?
A: inactive: 0.441

Q: Which z-score does the source give for “GGCUAUGUUCACCUGUGGATT against 4933428M03Rik” here?
A: inactive: 0.212

Q: For AGAGAGAUAUUGUUCAUCATT against BC050099, which z-score is on record?
A: inactive: 0.604

Q: Which z-score does the source give for “CCCUAUCCAUUCAUGGCACTT against 3322402L07Rik” here?
A: inactive: 1.22

Q: With GGAAGCUUCGAAAGUUUAUTT against Cklfsf2b as the sequence, how does the z-score read?
A: inactive: -0.498

Q: Which z-score does the source give for CCCAUUAAGGUAUAAUAUCTT against Olfr855 here?
A: inactive: 1.06

Q: Which z-score does the source give for “GGCUACUAUACUGUUGAAGTT against 2010110O04Rik” here?
A: inactive: -0.108

Q: For GGUCAUCAUGUCCAUCCGATT against Rpl10, which z-score is on record?
A: inactive: -3.01

Q: For “GGUUUACCUUUAUGCAACATT against 2410004F06Rik”, which z-score is on record?
A: inactive: 0.183

Q: With GGACAUUGAAGCCAUGGAUTT against Nsf as the sequence, how does the z-score read?
A: inactive: -1.48

Q: With GCCAUCAUGCUUUCAUGACTT against Bzrp as the sequence, how does the z-score read?
A: inactive: -0.611

Q: Which z-score does the source give for “GGUGGAGUGAUACGAAGAGTT against D330045A20Rik” here?
A: inactive: -2.75

Q: For GGUGAUGAAAGGGAAUGGCTT against Rnf25, which z-score is on record?
A: inactive: 0.189

Q: With “CCCGAAGCCUUAGAUAUAATT against 9930017A07Rik” as the sequence, how does the z-score read?
A: inactive: -1.37

Q: Which z-score does the source give for GGCACAACAACUUGAAUGGTT against Man2c1 here?
A: inactive: -0.157

Q: Which z-score does the source give for GGAGCUGAUGGAAGAGAUCTT against Speer4f here?
A: inactive: 1.01

Q: For “GCCUUUUCAUUGCACCUCCTT against 2810404F18Rik”, which z-score is on record?
A: inactive: 0.00101

Q: For CGUUCUUAUUACAUCUGAUTT against Mosg, which z-score is on record?
A: inactive: 0.811

Q: For GCAAGUCACGAAAGAAGAGTT against Ttll4, which z-score is on record?
A: inactive: -2.46

Q: For GGACUCAUGAAAUCAUACCTT against Spry1, which z-score is on record?
A: inactive: 0.261

Q: Which z-score does the source give for GCGUGAAGACAACAAGCAGTT against Myo1c here?
A: inactive: 0.693

Q: For GGGAACUACAAGCAUCCAGTT against Adm, which z-score is on record?
A: inactive: -0.51

Q: Which z-score does the source give for GGAUUUGUUACGGUAGUUUTT against Slc30a9 here?
A: inactive: -0.00918

Q: With GCUACGCUAUUUUUGGCUUTT against Micl as the sequence, how does the z-score read?
A: inactive: -0.0914

Q: Which z-score does the source give for GUUUUUGCUAUGGCUCGUATT against Hist1h3a here?
A: inactive: -1.86

Q: With “GCCAGAAUGGAGUUACACCTT against 1110036H21Rik” as the sequence, how does the z-score read?
A: inactive: 0.568

Q: Which z-score does the source give for GGGUAGGAUUCCAGAACAUTT against Arid2 here?
A: inactive: -2.19

Q: Which z-score does the source give for CCGCUAAACUUCCAUAACCTT against Rnf123 here?
A: inactive: 0.854

Q: Which z-score does the source give for GGCUCAGAUUCUCAACAGATT against Emx2 here?
A: inactive: -0.074

Q: For GGACUUGAGAGCAUUUGUGTT against Procr, which z-score is on record?
A: inactive: 0.302

Q: For GGUAGCACAUAGUCUAAAATT against MGC58382, which z-score is on record?
A: inactive: -0.19

Q: Which z-score does the source give for CGUUAUAAUGCAUACUGUUTT against Fbn1 here?
A: inactive: 1.18

Q: With GCCGAUUACUAUCCCGAGATT against Rasgef1c as the sequence, how does the z-score read?
A: inactive: 2.38

Q: With GGCUUAUAAAAUUCGGUCATT against Olig1 as the sequence, how does the z-score read?
A: inactive: 0.127

Q: For GGAAGAGUCAAUUUUGAUGTT against Gfpt1, which z-score is on record?
A: inactive: 1.62

Q: Which z-score does the source give for GGAUAGAGAUUCCAAACAUTT against Lgr8 here?
A: inactive: 1.36

Q: Which z-score does the source give for GGAUUCAUCACUGACUACATT against Ddc here?
A: inactive: 0.288

Q: Which z-score does the source give for CCACGUGGUUAUCUAUUAUTT against MGC38735 here?
A: inactive: -2.1

Q: For “GGAGGAGCAGAUAGACUCATT against 3100002P13Rik”, which z-score is on record?
A: inactive: -1.36

Q: With “CCCGUAUCUUUUUAGCUAATT against A630038E17Rik” as the sequence, how does the z-score read?
A: inactive: 0.453

Q: For GGAAAACUUCCAUAAAGAGTT against Bin1, which z-score is on record?
A: inactive: 0.0422

Q: Which z-score does the source give for “GGAAAUUGGCAUCACGUUGTT against 2700067D09Rik” here?
A: inactive: 0.606

Q: Which z-score does the source give for CGCAGAGAAGGACUAUCUUTT against Ush1c here?
A: inactive: -0.07

Q: With GGUUAUUGUUGAGAAUCCUTT against Gpkow as the sequence, how does the z-score read?
A: inactive: 1.27

Q: Which z-score does the source give for GGACAAUGCCCUGUAUCAGTT against Clic3 here?
A: inactive: -0.462

Q: With GGAGACAUCAAGAGUUCUGTT against H2-M10.1 as the sequence, how does the z-score read?
A: inactive: 0.545

Q: For GCAAUUGGUAAAGAUGAAATT against Sly, which z-score is on record?
A: inactive: -0.297
